In PMC5700813, “A recombinant BBSome core complex and how it interacts with ciliary cargo” (eLife, 2017):
These are yes or no findings as the source states them, for the method shown. Some results given as binding are weak or reduced against the parent protein; the word gives no strength.

T1: BBS9 C-terminal part (residues 363–887) (human) (UniProt Q3SYG4)
T1 sequence: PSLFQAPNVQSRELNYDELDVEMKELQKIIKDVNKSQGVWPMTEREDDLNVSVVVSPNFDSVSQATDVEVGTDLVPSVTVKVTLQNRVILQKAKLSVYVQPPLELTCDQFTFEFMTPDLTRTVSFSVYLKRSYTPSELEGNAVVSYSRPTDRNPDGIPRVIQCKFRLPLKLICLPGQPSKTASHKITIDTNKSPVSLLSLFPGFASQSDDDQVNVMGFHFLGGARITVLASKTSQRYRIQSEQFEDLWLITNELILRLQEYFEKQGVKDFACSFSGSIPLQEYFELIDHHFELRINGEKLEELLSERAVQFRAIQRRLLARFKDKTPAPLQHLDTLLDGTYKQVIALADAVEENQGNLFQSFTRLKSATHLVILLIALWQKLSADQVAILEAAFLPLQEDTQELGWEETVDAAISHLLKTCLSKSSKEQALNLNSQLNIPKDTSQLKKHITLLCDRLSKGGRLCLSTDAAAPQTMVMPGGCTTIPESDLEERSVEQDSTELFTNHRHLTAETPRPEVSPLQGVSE

T2: BBS9 (full length) (human) (UniProt Q3SYG4)
T2 sequence: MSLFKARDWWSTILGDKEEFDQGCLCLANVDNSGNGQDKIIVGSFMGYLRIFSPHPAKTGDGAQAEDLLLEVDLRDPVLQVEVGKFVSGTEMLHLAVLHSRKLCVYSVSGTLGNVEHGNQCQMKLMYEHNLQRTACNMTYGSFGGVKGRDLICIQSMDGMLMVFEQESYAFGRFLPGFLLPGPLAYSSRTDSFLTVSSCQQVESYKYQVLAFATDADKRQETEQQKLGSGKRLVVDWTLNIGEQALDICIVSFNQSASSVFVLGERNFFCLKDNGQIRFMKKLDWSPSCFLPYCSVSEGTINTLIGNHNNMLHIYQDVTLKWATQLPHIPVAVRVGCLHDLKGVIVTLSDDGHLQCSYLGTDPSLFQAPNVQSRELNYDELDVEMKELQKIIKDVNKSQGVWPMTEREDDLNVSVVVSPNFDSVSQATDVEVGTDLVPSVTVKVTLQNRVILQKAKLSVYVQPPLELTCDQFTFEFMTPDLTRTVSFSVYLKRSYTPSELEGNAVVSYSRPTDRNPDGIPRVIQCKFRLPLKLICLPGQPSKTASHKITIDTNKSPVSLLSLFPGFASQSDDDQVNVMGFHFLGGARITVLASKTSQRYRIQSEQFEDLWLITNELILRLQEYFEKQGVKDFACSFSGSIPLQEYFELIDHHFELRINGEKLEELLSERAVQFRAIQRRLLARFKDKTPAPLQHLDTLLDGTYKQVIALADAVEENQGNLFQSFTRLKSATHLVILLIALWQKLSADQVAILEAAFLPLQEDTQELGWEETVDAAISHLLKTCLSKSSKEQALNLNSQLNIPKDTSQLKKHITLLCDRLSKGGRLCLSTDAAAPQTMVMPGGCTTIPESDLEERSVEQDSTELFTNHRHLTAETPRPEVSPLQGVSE

T3: BBS9 N-terminal ß-propeller domain (residues 1–368) (human) (UniProt Q3SYG4)
T3 sequence: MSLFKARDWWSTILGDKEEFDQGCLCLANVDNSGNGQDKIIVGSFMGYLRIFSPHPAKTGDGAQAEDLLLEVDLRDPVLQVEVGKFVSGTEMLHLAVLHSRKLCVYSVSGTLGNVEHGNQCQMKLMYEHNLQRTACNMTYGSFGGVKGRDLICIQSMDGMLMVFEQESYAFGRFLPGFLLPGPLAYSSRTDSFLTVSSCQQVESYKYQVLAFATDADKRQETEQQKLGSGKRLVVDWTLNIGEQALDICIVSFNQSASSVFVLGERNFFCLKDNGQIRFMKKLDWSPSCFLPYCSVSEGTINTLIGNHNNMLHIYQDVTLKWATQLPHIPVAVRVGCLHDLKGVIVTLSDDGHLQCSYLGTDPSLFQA

B1: BBS1 (protein, UniProt Q8NFJ9-1 1-593)
chain: MAAASSSDSDACGAESNEANSKWLDAHYDPMANIHTFSACLALADLHGDGEYKLVVGDLGPGGQQPRLKVLKGPLVMTESPLPALPAAAATFLMEQHEPRTPALALASGPCVYVYKNLRPYFKFSLPQLPPNPLEQDLWNQAKEDRIDPLTLKEMLESIRETAEEPLSIQSLRFLQLELSEMEAFVNQHKSNSIKRQTVITTMTTLKKNLADEDAVSCLVLGTENKELLVLDPEAFTILAKMSLPSVPVFLEVSGQFDVEFRLAAACRNGNIYILRRDSKHPKYCIELSAQPVGLIRVHKVLVVGSTQDSLHGFTHKGKKLWTVQMPAAILTMNLLEQHSRGLQAVMAGLANGEVRIYRDKALLNVIHTPDAVTSLCFGRYGREDNTLIMTTRGGGLIIKILKRTAVFVEGGSEVGPPPAQAMKLNVPRKTRLYVDQTLREREAGTAMHRAFQTDLYLLRLRAARAYLQALESSLSPLSTTAREPLKLHAVVQGLGPTFKLTLHLQNTSTTRPVLGLLVCFLYNEALYSLPRAFFKVPLLVPGLNYPLETFVESLSNKGISDIIKVLVLREGQSAPLLSAHVNMPGSEGLAAA
B2: BBS2 (protein, UniProt Q9BXC9 1-721)
chain: MLLPVFTLKLRHKISPRMVAIGRYDGTHPCLAAATQTGKVFIHNPHTRNQHVSASRVFQSPLESDVSLLSINQAVSCLTAGVLNPELGYDALLVGTQTNLLAYDVYNNSDLFYREVADGANAIVLGTLGDISSPLAIIGGNCALQGFNHEGSDLFWTVTGDNVNSLALCDFDGDGKKELLVGSEDFDIRVFKEDEIVAEMTETEIVTSLCPMYGSRFGYALSNGTVGVYDKTSRYWRIKSKNHAMSIHAFDLNSDGVNELITGWSNGKVDARSDRTGEVIFKDNFSSAIAGVVEGDYRMDGHIQLICCSVDGEIRGYLPGTAEMRGNLMDTSAEQDLIRELSQKKQNLLLELRNYEENAKAELASPLNEADGHRGIIPANTRLHTTLSVSLGNETQTAHTELRISTSNDTIIRAVLIFAEGIFTGESHVVHPSIHNLSSSICIPIVPPKDVPVDLHLKAFVGYRSSTQFHVFESTRQLPRFSMYALTSLDPASEPISYVNFTIAERAQRVVVWLGQNFLLPEDTHIQNAPFQVCFTSLRNGGHLHIKIKLSGEITINTDDIDLAGDIIQSMASFFAIEDLQVEADFPVYFEELRKVLVKVDEYHSVHQKLSADMADHSNLIRSLLVGAEDARLMRDMKTMKSRYMELYDLNRDLLNGYKIRCNNHTELLGNLKAVNQAIQRAGRLRVGKPKNQVITACRDAIRSNNINTLFKIMRVGTASS
B3: BBS5 (protein, UniProt Q8N3I7-1 1-341)
chain: MSVLDALWEDRDVRFDLSAQQMKTRPGEVLIDCLDSIEDTKGNNGDRGRLLVTNLRILWHSLALSRVNVSVGYNCILNITTRTANSKLRGQTEALYILTKCNSTRFEFIFTNLVPGSPRLFTSVMAVHRAYETSKMYRDFKLRSALIQNKQLRLLPQEHVYDKINGVWNLSSDQGNLGTFFITNVRIVWHANMNDSFNVSIPYLQIRSIKIRDSKFGLALVIESSQQSGGYVLGFKIDPVEKLQESVKEINSLHKVYSASPIFGVDYEMEEKPQPLEALTVEQIQDDVEIDSDGHTDAFVAYFADGNKQQDREPVFSEELGLAIEKLKDGFTLQGLWEVMS
B4: BBS9 N-terminal ß-propeller domain (residues 1–368) (domain or fragment, UniProt Q3SYG4-1 1-368)
chain: T3 sequence

How the values were obtained:
[1] = target: T1, BBS9 C-terminal part (residues 363–887) (human); assay: co-expression and tandem affinity co-purification; subunits co-expressed in Hi5 insect cells; Strep/Flag tandem affinity purification; Coomassie-stained SDS-PAGE
[2] = target: T2, BBS9 (full length) (human); assay: as above
[3] = target: T3, BBS9 N-terminal ß-propeller domain (residues 1–368) (human); assay: as above
[4] = target: T3, BBS9 N-terminal ß-propeller domain (residues 1–368) (human); assay: SEC; samples purified by affinity chromatography and gel filtration; 2.5–10 µg of the peak fraction on a Superdex 200 5/20 column; elution volume against standard proteins; both purified

Row | Binder | binding [1] | binding [2] | binding [3] | binding [4]
1 | B1 | binds | binds |  | 
2 | B2 |  | binds |  | 
3 | B3 |  | binds | binds | 
4 | B4 |  |  |  | no binding
